{"source": "PubChem BioAssay AID504795 (Drosophila RNAi Screening Center, 2011)", "aim": "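Fly genes whose loss alters neurite growth or neural cell form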 (primary screen)", "cell system": "primary Drosophila neurons and glia", "knock-down reagent": "long dsRNA against Drosophila genes, 250 ng dsRNA per well", "timing": "one week", "measured": "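Descriptive morphology terms assigned by visual inspection of live automated images of GFP-marked cells, taken one week after adding 250 ng dsRNA per well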", "note": "Only reagents picked out of a larger screen are listed. 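Every listed dsRNA shows some phenotype; how reagents were selected for listing is not stated.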 Names joined by + are all predicted targets of the reagent. No sequences are given here."}
{"target gene": "beat-IV (beaten path IV)", "PubChem SID": "SID104193987", "phenotype seen, replicate 1": "cell fragments present"}
{"target gene": "bma (black match)", "PubChem SID": "SID104189688", "phenotype seen, replicate 1": "abnormal cell clusters"}
{"target gene": "bma (black match)", "PubChem SID": "SID104189956", "phenotype seen, replicate 1": "axon bundles split apart"}
{"target gene": "CG7362", "PubChem SID": "SID104196028", "phenotype seen, replicate 1": "abnormal cell clusters"}
{"target gene": "Ugt303B2 (UDP-glycosyltransferase family 303 member B2)", "PubChem SID": "SID104202223", "phenotype seen, replicate 1": "too many neurite branches"}
{"target gene": "Ugt37C1 (UDP-glycosyltransferase family 37 member C1)", "PubChem SID": "SID104187208", "phenotype seen, replicate 1": "axon bundles split apart"}
{"target gene": "aqz (aaquetzalli)", "PubChem SID": "SID104196362", "phenotype seen, replicate 1": "too many neurite branches"}
{"target gene": "Kif3C (Kinesin family member 3C)", "PubChem SID": "SID104197001", "phenotype seen, replicate 1": "abnormal cell clusters"}
{"target gene": "asp (abnormal spindle)", "PubChem SID": "SID104196695", "phenotype seen, replicate 1": "cell fragments present"}
{"target gene": "CG33017", "PubChem SID": "SID104186366", "phenotype seen, replicate 1": "too many neurite branches"}
{"target gene": "fz2 (frizzled 2)", "PubChem SID": "SID104189879", "phenotype seen, replicate 1": "abnormal cell clusters"}
{"target gene": "Cadps (Calcium-dependent secretion activator)", "PubChem SID": "SID104200849", "phenotype seen, replicate 1": "sheet-like cell extensions"}
{"target gene": "myd (mayday)", "PubChem SID": "SID104195304", "phenotype seen, replicate 1": "sheet-like cell extensions"}
{"target gene": "128up (upstream of RpIII128)", "PubChem SID": "SID104184819", "phenotype seen, replicate 1": "axon bundles split apart"}
{"target gene": "CG31464", "PubChem SID": "SID104194137", "phenotype seen, replicate 1": "too many neurite branches"}
{"target gene": "sni (sniffer)", "PubChem SID": "SID104197562", "phenotype seen, replicate 1": "sheet-like cell extensions"}
{"target gene": "EloA (Elongin A)", "PubChem SID": "SID104195901", "phenotype seen, replicate 1": "cell fragments present"}
{"target gene": "Hakai", "PubChem SID": "SID104181823", "phenotype seen, replicate 1": "sheet-like cell extensions"}
{"target gene": "CG14341", "PubChem SID": "SID104180163", "phenotype seen, replicate 1": "reduced axon outgrowth"}
{"target gene": "CG31562 (retired record)", "PubChem SID": "SID104192066", "phenotype seen, replicate 1": "axon bundles split apart"}
{"target gene": "sel (seele)", "PubChem SID": "SID104186024", "phenotype seen, replicate 1": "axon bundles split apart"}
{"target gene": "CG18327", "PubChem SID": "SID104186514", "phenotype seen, replicate 1": "axon bundles split apart"}
{"target gene": "CG33958", "PubChem SID": "SID104186736", "phenotype seen, replicate 1": "sheet-like cell extensions"}
{"target gene": "Cdc42 (Cell division cycle 42)", "PubChem SID": "SID104200020", "phenotype seen, replicate 1": "sheet-like cell extensions"}
{"target gene": "CG6553", "PubChem SID": "SID104186794", "phenotype seen, replicate 1": "beaded; swollen axons"}
{"target gene": "CG43317", "PubChem SID": "SID104194792", "phenotype seen, replicate 1": "abnormal cell clusters"}
{"target gene": "Rpt4R (Regulatory particle triple-A ATPase 4-related)", "PubChem SID": "SID104190583", "phenotype seen, replicate 1": "too many neurite branches"}
{"target gene": "CG34165", "PubChem SID": "SID104181762", "phenotype seen, replicate 1": "cell fragments present", "phenotype seen, replicate 2": "abnormal cell clusters"}
{"target gene": "trol (terribly reduced optic lobes)", "PubChem SID": "SID104198405", "phenotype seen, replicate 1": "abnormal cell clusters"}
{"target gene": "trol (terribly reduced optic lobes)", "PubChem SID": "SID104198606", "phenotype seen, replicate 1": "axon bundles split apart"}
{"target gene": "eyg (eyegone)", "PubChem SID": "SID104191136", "phenotype seen, replicate 1": "abnormal cell clusters"}
{"target gene": "Nrg (Neuroglian)", "PubChem SID": "SID104198480", "phenotype seen, replicate 1": "cell fragments present"}
{"target gene": "OS9 (Olfactory-specific 9)", "PubChem SID": "SID104182492", "phenotype seen, replicate 1": "beaded; swollen axons"}
{"target gene": "lncRNA:CR42862 + CG33229", "PubChem SID": "SID104188289", "phenotype seen, replicate 1": "abnormal cell clusters"}
{"target gene": "beta3GalTII (beta-1,3-Galactosyltransferase II)", "PubChem SID": "SID104187045", "phenotype seen, replicate 1": "sheet-like cell extensions"}
{"target gene": "Crg-1 (Circadianly Regulated Gene)", "PubChem SID": "SID104202241", "phenotype seen, replicate 1": "axon bundles split apart"}
{"target gene": "brv2 (brivido-2)", "PubChem SID": "SID104190018", "phenotype seen, replicate 1": "abnormal cell clusters"}
{"target gene": "Taf1 (TBP-associated factor 1)", "PubChem SID": "SID104192399", "phenotype seen, replicate 1": "abnormal cell clusters"}
{"target gene": "spo (spook)", "PubChem SID": "SID104190919", "phenotype seen, replicate 1": "too many neurite branches"}
{"target gene": "eIF3m (eukaryotic translation initiation factor 3 subunit m)", "PubChem SID": "SID104186934", "phenotype seen, replicate 1": "beaded; swollen axons"}
{"target gene": "lilli (lilliputian)", "PubChem SID": "SID104180500", "phenotype seen, replicate 1": "cell fragments present"}
{"target gene": "CG34426", "PubChem SID": "SID104189769", "phenotype seen, replicate 1": "too many neurite branches"}
{"target gene": "Ttc7 (Tetratricopeptide repeat domain 7)", "PubChem SID": "SID104184628", "phenotype seen, replicate 1": "sheet-like cell extensions"}
{"target gene": "CG32986", "PubChem SID": "SID104182301", "phenotype seen, replicate 1": "reduced axon outgrowth"}
{"target gene": "Him (Holes in muscle)", "PubChem SID": "SID104199430", "phenotype seen, replicate 1": "fewer cells"}
{"target gene": "CG4041", "PubChem SID": "SID104198131", "phenotype seen, replicate 1": "too many neurite branches"}
{"target gene": "CG13075", "PubChem SID": "SID104189750", "phenotype seen, replicate 1": "sheet-like cell extensions"}

In a second layout: 6 of the entries above
| target gene | PubChem SID | phenotype seen, replicate 1 | phenotype seen, replicate 2 |
| --- | --- | --- | --- |
| trol (terribly reduced optic lobes) | SID104198606 | axon bundles split apart | – |
| eyg (eyegone) | SID104191136 | abnormal cell clusters | – |
| Nrg (Neuroglian) | SID104198480 | cell fragments present | – |
| OS9 (Olfactory-specific 9) | SID104182492 | beaded; swollen axons | – |
| lncRNA:CR42862 + CG33229 | SID104188289 | abnormal cell clusters | – |
| beta3GalTII (beta-1,3-Galactosyltransferase II) | SID104187045 | sheet-like cell extensions | – |
